Laboratory results: paper PMC3161941
No constants are given. Whether binding was seen depends on the method and setting. Some entries that bind do so weakly or less than the wild type. Sequences can lack the tags named with a protein.

The chains behind the UniProt entries cited, without tags or fusion partners.
UniProt P28482: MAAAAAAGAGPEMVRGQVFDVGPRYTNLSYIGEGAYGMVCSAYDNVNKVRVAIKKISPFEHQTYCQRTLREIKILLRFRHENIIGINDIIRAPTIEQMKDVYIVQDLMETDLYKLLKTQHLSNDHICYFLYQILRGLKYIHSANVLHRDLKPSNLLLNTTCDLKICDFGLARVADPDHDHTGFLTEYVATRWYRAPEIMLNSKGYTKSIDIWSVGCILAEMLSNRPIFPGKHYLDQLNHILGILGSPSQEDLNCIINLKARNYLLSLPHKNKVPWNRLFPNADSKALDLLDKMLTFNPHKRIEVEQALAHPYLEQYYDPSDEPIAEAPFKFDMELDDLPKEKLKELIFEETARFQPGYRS
UniProt P39745: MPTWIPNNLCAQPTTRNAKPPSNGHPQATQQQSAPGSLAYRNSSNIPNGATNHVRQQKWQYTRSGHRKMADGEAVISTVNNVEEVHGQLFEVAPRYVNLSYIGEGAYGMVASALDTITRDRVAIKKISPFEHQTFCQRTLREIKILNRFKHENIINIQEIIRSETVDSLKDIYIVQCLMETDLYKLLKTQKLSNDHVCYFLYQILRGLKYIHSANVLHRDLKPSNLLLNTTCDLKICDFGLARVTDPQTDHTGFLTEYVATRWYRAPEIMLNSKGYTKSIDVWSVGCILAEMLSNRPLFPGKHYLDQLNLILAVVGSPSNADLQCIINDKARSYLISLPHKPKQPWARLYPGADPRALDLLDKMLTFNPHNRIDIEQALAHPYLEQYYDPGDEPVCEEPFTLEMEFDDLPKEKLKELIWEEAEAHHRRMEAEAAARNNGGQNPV

What was measured:
[1] = molecular target: T1, LIP-1 (C. elegans MAPK phosphatase) fused to the Gal4 DNA binding domain (C. elegans) (UniProt V6CIV8); experiment: two-hybrid; Gal4 system (pGBK-T7 and pGAD-T7 fusions), diploid yeast from mating pJ69-4A and pJ69-4alpha; growth on -Leu -Trp -His -Ade after 72 hrs at 30°C and beta-galactosidase activity
T1 sequence: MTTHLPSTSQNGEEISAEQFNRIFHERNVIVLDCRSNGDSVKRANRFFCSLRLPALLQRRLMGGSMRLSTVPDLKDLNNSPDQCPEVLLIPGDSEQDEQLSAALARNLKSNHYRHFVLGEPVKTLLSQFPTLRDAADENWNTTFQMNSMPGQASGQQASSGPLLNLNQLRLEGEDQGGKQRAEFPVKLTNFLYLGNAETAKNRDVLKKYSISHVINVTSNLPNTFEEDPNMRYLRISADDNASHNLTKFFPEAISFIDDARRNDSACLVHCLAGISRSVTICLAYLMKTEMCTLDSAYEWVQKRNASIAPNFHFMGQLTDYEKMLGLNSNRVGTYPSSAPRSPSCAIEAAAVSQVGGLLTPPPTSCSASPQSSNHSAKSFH

[2] = molecular target: T2, human DUSP6 fused to the Gal4 DNA binding domain (human) (UniProt Q16828); experiment: as above
T2 sequence: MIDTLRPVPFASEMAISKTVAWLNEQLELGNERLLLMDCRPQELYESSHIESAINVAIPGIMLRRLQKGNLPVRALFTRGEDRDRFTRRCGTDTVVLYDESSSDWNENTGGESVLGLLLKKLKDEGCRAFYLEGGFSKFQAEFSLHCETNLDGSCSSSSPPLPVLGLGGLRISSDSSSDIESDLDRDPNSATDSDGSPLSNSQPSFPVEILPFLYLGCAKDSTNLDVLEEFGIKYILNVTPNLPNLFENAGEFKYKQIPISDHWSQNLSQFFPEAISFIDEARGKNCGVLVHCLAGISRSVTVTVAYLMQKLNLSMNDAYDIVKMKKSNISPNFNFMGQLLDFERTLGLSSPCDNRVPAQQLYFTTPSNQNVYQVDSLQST

| binding [1] | binding [2] | Substance |
| --- | --- | --- |
| binds |  | mammalian ERK2 fused to the Gal4 activation domain (from UniProt P28482 1-360) (enzyme) |
| binds | binds | MPK-1B (C. elegans ERK orthologue, larger germline isoform) fused to the Gal4 activation domain (from UniProt P39745 1-444) (enzyme) |
